Assay type in all cases: cell-based
Test [1] has as its target T1, RNA polymerase II (Mus musculus) (UniProt P08775+Q8CFI7+P97760+A0A3Q4L2S8+Q80UW8+P61219+P62488+Q923G2+P60898+O08740+Q63871+P62876). The experiment in a line: Inhibition of RNA polymerase II in mouse B16-F1 migrating cells assessed as fold change in Washc4-RNA stability at 0.1 mM measured by ChIP-seq analysis relative to control cells.
Test [2] has as its target T1, RNA polymerase II (Mus musculus). The experiment in a line: Inhibition of RNA polymerase II in mouse B16-F1 migrating cells assessed as fold change in Snx17-RNA stability at 0.1 mM measured by ChIP-seq analysis relative to control cells.
Test [3] has the same target. The experiment in a line: Inhibition of RNA polymerase II in mouse B16-F1 migrating cells assessed as fold change in Plk4-RNA stability at 0.1 mM measured by ChIP-seq analysis relative to control cells.
For test [4] the target is unchanged. The experiment in a line: Inhibition of RNA polymerase II in mouse B16-F1 migrating cells assessed as fold change in Krit1-RNA stability at 0.1 mM measured by ChIP-seq analysis relative to control cells.
The target is the same in test [5]. The experiment in a line: Inhibition of RNA polymerase II in mouse B16-F1 migrating cells assessed as fold change in Rbpms-RNA stability at 0.1 mM measured by ChIP-seq analysis relative to control cells.
The target is the same in test [6]. The experiment in a line: Inhibition of RNA polymerase II in mouse B16-F1 migrating cells assessed as fold change in Eef1g-RNA stability at 0.1 mM measured by ChIP-seq analysis relative to control cells.
The target is the same in test [7]. The experiment in a line: Inhibition of RNA polymerase II in mouse B16-F1 migrating cells assessed as fold change in Slc35a3-RNA stability at 0.1 mM measured by ChIP-seq analysis relative to control cells.
The target is the same in test [8]. The experiment in a line: Inhibition of RNA polymerase II in mouse B16-F1 migrating cells assessed as fold change in Selenbp1-RNA stability at 0.1 mM measured by ChIP-seq analysis relative to control cells.
For test [9] the target is unchanged. The experiment in a line: Inhibition of RNA polymerase II in mouse B16-F1 migrating cells assessed as fold change in Fmr1-RNA stability at 0.1 mM measured by ChIP-seq analysis relative to control cells.
The target is the same in test [10]. The experiment in a line: Inhibition of RNA polymerase II in mouse B16-F1 migrating cells assessed as fold change in Mtm1-RNA stability at 0.1 mM measured by ChIP-seq analysis relative to control cells.
Test [11] shares this target. The experiment in a line: Inhibition of RNA polymerase II in mouse B16-F1 migrating cells assessed as fold change in Ptpn2-RNA stability at 0.1 mM measured by ChIP-seq analysis relative to control cells.
Test [12] shares this target. The experiment in a line: Inhibition of RNA polymerase II in mouse B16-F1 migrating cells assessed as fold change in Mospd3-RNA stability at 0.1 mM measured by ChIP-seq analysis relative to control cells.
Test [13] has the same target. The experiment in a line: Inhibition of RNA polymerase II in mouse B16-F1 migrating cells assessed as fold change in Hmgn5-RNA stability at 0.1 mM measured by ChIP-seq analysis relative to control cells.
Test [14] has the same target. The experiment in a line: Inhibition of RNA polymerase II in mouse B16-F1 migrating cells assessed as fold change in Atp6v0b-RNA stability at 0.1 mM measured by ChIP-seq analysis relative to control cells.
Test [15] has the same target. The experiment in a line: Inhibition of RNA polymerase II in mouse B16-F1 migrating cells assessed as fold change in Ect2-RNA stability at 0.1 mM measured by ChIP-seq analysis relative to control cells.
Test [16] deals with Histone-lysine N-methyltransferase EZH2 (Mus musculus) (UniProt Q61188). The experiment in a line: Inhibition of EZH2 in mouse B16-F1 migrating cells assessed as fold change in H3K27me3-buffered regulated Hmgb2-mRNA expression at 3 uM measured by ChIP-seq analysis relative to control cells.
Test [17] has the same target. The experiment in a line: Inhibition of EZH2 in mouse B16-F1 migrating cells assessed as fold change in H3K27me3-independent regulated Map2k3os-mRNA expression at 3 uM measured by ChIP-seq analysis relative to control cells.
Test [18] has the same target. The experiment in a line: Inhibition of EZH2 in mouse B16-F1 migrating cells assessed as fold change in H3K27me3-buffered regulated Zfp57-mRNA expression at 3 uM measured by ChIP-seq analysis relative to control cells.
The target is the same in test [19]. The experiment in a line: Inhibition of EZH2 in mouse B16-F1 migrating cells assessed as fold change in H3K27me3-buffered regulated Gm15754-mRNA expression at 3 uM measured by ChIP-seq analysis relative to control cells.
For test [20] the target is unchanged. The experiment in a line: Inhibition of EZH2 in mouse B16-F1 migrating cells assessed as fold change in H3K27me3-dependent regulated Cyp1a1-mRNA expression at 3 uM measured by ChIP-seq analysis relative to control cells.
The target is the same in test [21]. The experiment in a line: Inhibition of EZH2 in mouse B16-F1 migrating cells assessed as fold change in H3K27me3-independent regulated Runx2-mRNA expression at 3 uM measured by ChIP-seq analysis relative to control cells.
Test [22] shares this target. The experiment in a line: Inhibition of EZH2 in mouse B16-F1 migrating cells assessed as fold change in H3K27me3-independent regulated Pkp2-mRNA expression at 3 uM measured by ChIP-seq analysis relative to control cells.
For test [23] the target is unchanged. The experiment in a line: Inhibition of EZH2 in mouse B16-F1 migrating cells assessed as fold change in H3K27me3-buffered regulated Bckdha-mRNA expression at 3 uM measured by ChIP-seq analysis relative to control cells.
Test [24] shares this target. The experiment in a line: Inhibition of EZH2 in mouse B16-F1 migrating cells assessed as fold change in H3K27me3-buffered regulated 2700081O15Rik-mRNA expression at 3 uM measured by ChIP-seq analysis relative to control cells.
Test [25] has the same target. The experiment in a line: Inhibition of EZH2 in mouse B16-F1 migrating cells assessed as fold change in H3K27me3-buffered regulated Gm11478-mRNA expression at 3 uM measured by ChIP-seq analysis relative to control cells.
Test [26] has the same target. The experiment in a line: Inhibition of EZH2 in mouse B16-F1 migrating cells assessed as fold change in H3K27me3-buffered regulated Lbh-mRNA expression at 3 uM measured by ChIP-seq analysis relative to control cells.
The target is the same in test [27]. The experiment in a line: Inhibition of EZH2 in mouse B16-F1 migrating cells assessed as fold change in H3K27me3-buffered regulated Wdr76-mRNA expression at 3 uM measured by ChIP-seq analysis relative to control cells.
The target is the same in test [28]. The experiment in a line: Inhibition of EZH2 in mouse B16-F1 migrating cells assessed as fold change in H3K27me3-buffered regulated Tex9-mRNA expression at 3 uM measured by ChIP-seq analysis relative to control cells.
Test [29] shares this target. The experiment in a line: Inhibition of EZH2 in mouse B16-F1 migrating cells assessed as fold change in H3K27me3-buffered regulated Por-mRNA expression at 3 uM measured by ChIP-seq analysis relative to control cells.
The target is the same in test [30]. The experiment in a line: Inhibition of EZH2 in mouse B16-F1 migrating cells assessed as fold change in H3K27me3-dependent regulated 2810410L24Rik-mRNA expression at 3 uM measured by ChIP-seq analysis relative to control cells.

By UniProt entry, the sequences of proteins in these tests, tags left out.
UniProt Q61188, whole entry: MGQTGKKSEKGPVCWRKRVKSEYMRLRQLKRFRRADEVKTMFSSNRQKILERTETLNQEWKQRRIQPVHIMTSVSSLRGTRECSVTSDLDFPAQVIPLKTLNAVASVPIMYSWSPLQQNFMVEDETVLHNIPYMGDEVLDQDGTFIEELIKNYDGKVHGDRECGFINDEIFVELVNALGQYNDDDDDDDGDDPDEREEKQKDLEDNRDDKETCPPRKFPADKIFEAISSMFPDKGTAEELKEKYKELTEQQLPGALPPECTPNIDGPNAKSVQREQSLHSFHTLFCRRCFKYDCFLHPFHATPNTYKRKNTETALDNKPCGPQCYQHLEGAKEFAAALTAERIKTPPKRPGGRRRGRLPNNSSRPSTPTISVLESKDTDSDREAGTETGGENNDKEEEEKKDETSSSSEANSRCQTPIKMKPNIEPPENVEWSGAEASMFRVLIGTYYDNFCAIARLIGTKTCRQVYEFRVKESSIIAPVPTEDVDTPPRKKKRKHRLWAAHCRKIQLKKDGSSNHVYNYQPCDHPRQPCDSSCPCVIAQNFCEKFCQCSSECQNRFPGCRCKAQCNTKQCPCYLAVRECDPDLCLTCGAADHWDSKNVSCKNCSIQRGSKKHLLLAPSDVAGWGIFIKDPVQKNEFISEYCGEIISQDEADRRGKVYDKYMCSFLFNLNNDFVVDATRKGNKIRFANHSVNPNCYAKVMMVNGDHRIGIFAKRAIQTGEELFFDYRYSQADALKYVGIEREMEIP

This continues a long series; more values of the same kind are listed elsewhere.

This passage reports log2FC results from ChEMBL document CHEMBL5674883, “The Heterochromatin Landscape in Migrating Cells and the Importance of H3K27me3 for Associated Transcriptome Alterations” (Cells, 2018).

Consider `OC[C@H]1O[C@@H](n2cnc3cc(Cl)c(Cl)cc32)[C@H](O)[C@@H]1O`, for which the log2FC in test [1] is -0.54; in test [2], 0.39; in test [3] it was -0.53; in test [4], -0.76; in test [5], 0.55; in test [6], 0.42. Besides, the log2FC in test [7] is -0.53; in test [8], 1.46; in test [9], -0.68; in test [10] it was -0.84; in test [11], -0.63; in [12], 0.5. In addition, the results for the log2FC in [13], in [14] and in test [15] were -1.13, 0.41 and -0.68, respectively.
Take `CCCc1cc(C)[nH]c(=O)c1CNC(=O)c1cc(-c2ccnc(N3CCN(C)CC3)c2)cc2c1cnn2C(C)C`: the log2FC in test [16] is -0.53; in [17], 0.62; in test [18], -0.7; in [19], 1.53; in [20], 0.46; in [21], 0.73. Moreover, the log2FC in test [22] was 0.67; in test [23] it was 0.42; in test [24], -0.42; in test [25], 0.81; in test [26], -0.53; in [27] it was -0.4. The log2FC in [28] was -0.45; in [29] it was 0.46; in test [30], -0.33.
